For series [1] the following is noted: PBS pH 7.4, after 24 h stirring, room temperature.
Series [2] concerns human neuroblastoma cell line (SY5Y). Put plainly: Cytotoxicity, colorimetric MTT assay. The format is cell-based. As to conditions: at 100 μM, SY5Y neuroblastoma cells.
A short description of the next series: physchem. As to conditions: n-octanol/PBS, pH 7.4.

“Also recorded” adds a separate entry of the source.

With `Cl.O=C(CN1CCCCC1)Nc1ccc2oc(-c3ccco3)nc2c1` [Compound F1, N-[2-(Furan-2-yl)-1,3-benzoxazol-5-yl]-2-(piperidin-1-yl)acetamide hydrochloride], in series [1], the “Solubility PBS, pH 7.4” value was 184 μm. Further, the Cytotoxicity in words result in series [2] was “without cytotoxicity; also recorded: without being cytotoxic”. The compound further came in with a logD at 60 min in “physchem” of 2.33.

Usually logD stands for the decadic logarithm of the distribution of all forms, ionised or not, between an organic phase and buffer at a given pH. A lower logD goes with lower lipophilicity.

Values taken from PMC6445171 (Journal of Enzyme Inhibition and Medicinal Chemistry, 2017).
